The list is a part of this screen's results and no random one: it gathers tests that were run many times, whatever their T/C, doses with no T/C, and many T/C values between a quarter and a half above the control. Further doses and runs are listed elsewhere. T/C: endpoint of the treated group in % of that of the vehicle group. Some entries give survivors of the animals treated and no T/C: the source files T/C as zero there, which appears to mark a toxic dose or a test without result, not a measured value. Some survivor counts are full or nearly so, which does not show that the dose was tolerated: the source hardly ever lists a survival T/C far under the control, and the zero likely stands for such cases as well. Counts of survivors are from the toxicity check (mostly the fifth day) where no day follows; animals may have died later. Schedules are NCI's codes, read here as Q, the interval in days (D) or hours (H), X, the number of doses. For survival time, this PubChem deposit counts one and a half times the control or more as active, and values a quarter to a half above the control carry no call in these data; other NCI protocols may use other cut-offs. Some entries hold several experiments; their values stand side by side, smallest first. Some schedules carry Z or #; the key to these is not given.

In the experiment the test system is L1210 leukemia ip in BDF1 mice, survival T/C. The experiment in a line: NCI In Vivo Anticancer Drug Screen. Data for tumor model L1210 Leukemia (intraperitoneal) in B6D2F1 (BDF1) mice. The settings on record: T/C endpoint: mean survival time, higher T/C = longer survival.
Setting [1] is: dose: 400.0 mg/kg/injection, schedule: Q01DX009 (ip), vehicle: Klucel (hydroxypropylcellulose) (HPC).
Where [2] appears, read: dose: 400.0 mg/kg/injection, schedule: Q01DX001 (ip), vehicle: saline.
The mark [3] stands for this setting: dose: 100.0 mg/kg/injection, schedule: Q01DX009 (ip), vehicle: saline.
Setting [4] is: dose: 200.0 mg/kg/injection, schedule: Q01DX009 (ip), vehicle: saline.
[5] abbreviates: dose: 400.0 mg/kg/injection, schedule: Q04DX003 (ip), vehicle: saline.
Setting [6] is: dose: 2.0 mg/kg/injection, schedule: Q01DX009 (ip), vehicle: saline.
Setting [7] is: dose: 200.0 mg/kg/injection, schedule: Q01DX001 (ip), vehicle: saline.

Regarding `O=Cc1cc([N+](=O)[O-])cc(CCl)c1O`, the survivor count was 5 of 6 (dose: 200.0 mg/kg/injection, schedule: Q01DX009 (ip), vehicle: Klucel (hydroxypropylcellulose) (HPC)) and 0 of 6 under setting [1].

Regarding `Nc1nc(N)c(N=Nc2ccc(C(=O)O)cc2)c(=O)[nH]1`, under setting [2], the survivor count is given as 3 of 6.

Take `CC1CC(C)(C)NC(=S)O1` (configuration not stated): the survivor count (dose: 60.0 mg/kg/injection, schedule: Q01DX001 (ip), vehicle: carboxymethylcellulose (CMC)) was 1 of 6; the survivor count (dose: 75.0 mg/kg/injection, schedule: Q01DX001 (ip), vehicle: carboxymethylcellulose (CMC)) is listed as 0 of 6; the survivor count (dose: 150.0 mg/kg/injection, schedule: Q01DX001 (ip), vehicle: carboxymethylcellulose (CMC)) is 0 of 6; the survivor count (dose: 300.0 mg/kg/injection, schedule: Q01DX001 (ip), vehicle: carboxymethylcellulose (CMC)) is 0 of 6.

For the molecule `O=C(Nc1ccc(C2=NCCN2)cc1)c1ccc2cc(C(=O)Nc3ccc(C4=NCCN4)cc3)ccc2c1`, the T/C reads like this: (dose: 15.0 mg/kg/injection, schedule: Q01DX Z (ip), vehicle: carboxymethylcellulose (CMC)) 125 % of control; (dose: 30.0 mg/kg/injection, schedule: Q01DX Z (ip), vehicle: carboxymethylcellulose (CMC)) 127 and 135 % of control; (dose: 60.0 mg/kg/injection, schedule: Q01DX Z (ip), vehicle: carboxymethylcellulose (CMC)) 125 and 135 % of control; (dose: 120.0 mg/kg/injection, schedule: Q01DX Z (ip), vehicle: carboxymethylcellulose (CMC)) 141 % of control.

Regarding `C1=Cc2ccccc2/C1=C/c1cccc(/C=C2\C=Cc3ccccc32)c1`, where the note is “dose: 50.0 mg/kg/injection, schedule: Q04DX003 (ip), vehicle: saline with Tween-80”, the survivor count is given as 6 of 6.

`Cc1ncc(C(=O)Nc2ccccc2)[nH]1`: the survivor count under setting [1] is 0 of 6 and the survivor count (dose: 400.0 mg/kg/injection, schedule: Q04DX003 (ip), vehicle: Klucel (hydroxypropylcellulose) (HPC)) is 0 of 6.

`C#CC[N+]1(C)CCC=C(C(=O)OC)C1` (configuration not stated): the survivor count is given as 2 of 6 under setting [3]; 0 of 6 under setting [4]; 0 of 6 (dose: 400.0 mg/kg/injection, schedule: Q01DX009 (ip), vehicle: saline).

For the molecule `CC(C)(C)C(=O)CN`, the T/C is 105 % of control (dose: 100.0 mg/kg/injection, schedule: Q04DX002 (ip), vehicle: saline, evaluated on day 20); 98, 100, 107 % of control (dose: 100.0 mg/kg/injection, schedule: Q04DX002 (ip), vehicle: saline, evaluated on day 30); 86 % of control (dose: 200.0 mg/kg/injection, schedule: Q04DX002 (ip), vehicle: saline, evaluated on day 20); 105, 106, 109 % of control (dose: 200.0 mg/kg/injection, schedule: Q04DX002 (ip), vehicle: saline, evaluated on day 30); 94 % of control (dose: 400.0 mg/kg/injection, schedule: Q04DX002 (ip), vehicle: saline, evaluated on day 20); 97, 98, 126 % of control (dose: 400.0 mg/kg/injection, schedule: Q04DX002 (ip), vehicle: saline, evaluated on day 30).

Consider `CCCCCOC(CN)C(Cl)(Cl)Cl` (configuration not stated), for which the survivor count is reported as 4 of 6 under setting [3]; 0 of 6 (dose: 200.0 mg/kg/injection, schedule: Q04DX003 (ip), vehicle: saline); 0 of 6 under setting [5].

As to `COC(OC)c1cc(=O)[nH]c(NC(=O)C(Cl)Cl)n1`, under “dose: 100.0 mg/kg/injection, schedule: Q01DX009 (ip), vehicle: saline with Tween-80”, the survivor count is 6 of 6.

Regarding `CC(=O)Oc1ccc2c3c(ccc2c1)CCCC3`, for the setting “dose: 100.0 mg/kg/injection, schedule: Q01DX009 (ip), vehicle: Klucel (hydroxypropylcellulose) (HPC)”, the survivor count is 2 of 3.

For the molecule `CCCCCCC(C)CCCCCCCCNCCOC(=O)c1ccc(N)cc1` (configuration not stated), where the note is “dose: 300.0 mg/kg/injection, schedule: Q01DX001 (ip), vehicle: saline”, the survivor count is given as 3 of 6.

With `CCc1c(CNc2ccc(C(=O)NC(CC(=O)O)CC(=O)O)cc2)ccc2nc(N)nc(N)c12`, the survivor count by setting is: (dose: 0.5 mg/kg/injection, schedule: Q01DX009 (ip), vehicle: saline) 3 of 6; under setting [6], 6 of 6; (dose: 3.0 mg/kg/injection, schedule: Q01DX009 (ip), vehicle: saline) 6 of 6; (dose: 4.0 mg/kg/injection, schedule: Q01DX009 (ip), vehicle: saline) 6 of 6; (dose: 8.0 mg/kg/injection, schedule: Q01DX009 (ip), vehicle: saline) 6 of 6; (dose: 16.0 mg/kg/injection, schedule: Q01DX009 (ip), vehicle: saline) 4 of 6. Besides, the survivor count (dose: 16.0 mg/kg/injection, schedule: Q04DX003 (ip), vehicle: saline) is listed as 6 of 6. Moreover, the T/C was 132 % of control (dose: 1.0 mg/kg/injection, schedule: Q01DX009 (ip), vehicle: saline); 148 % of control under setting [6]; 128 % of control (dose: 2.0 mg/kg/injection, schedule: Q04DX003 (ip), vehicle: saline); 145 % of control (dose: 4.0 mg/kg/injection, schedule: Q04DX003 (ip), vehicle: saline); 131 % of control (dose: 8.0 mg/kg/injection, schedule: Q04DX003 (ip), vehicle: saline).

Consider `O=C(C(F)F)C(F)F`, for which the survivor count runs as follows: under setting [4], 0 of 6; under setting [5], 0 of 6.

Consider `CCC(=O)C(c1ccccc1)(c1ccccc1)C(C)CN(C)C` (configuration not stated), for which the survivor count (dose: 80.0 mg/kg/injection, schedule: Q01DX001 (ip), vehicle: saline) is reported as 0 of 6; the survivor count (dose: 100.0 mg/kg/injection, schedule: Q01DX001 (ip), vehicle: saline) is reported as 2 of 6; the survivor count under setting [7] is 0 of 6; the survivor count under setting [2] is 0 of 6.

Consider `c1cnc2ccc3c(c2c1)COCO3`, for which the survivor count is, setting by setting: under setting [7], 2 of 6; under setting [2], 0 of 6.

Consider `CCOC(=O)NNC(=O)O`, for which the survivor count runs as follows: (dose: 200.0 mg/kg/injection, schedule: Q01DX001 (ip), vehicle: carboxymethylcellulose (CMC)) 0 of 4; (dose: 400.0 mg/kg/injection, schedule: Q01DX001 (ip), vehicle: carboxymethylcellulose (CMC)) 0 of 4.

`CN1C(=O)CC(c2ccc(N3C(=O)C=CC3=O)cc2)C1=O` (configuration not stated): the survivor count reads like this: (dose: 50.0 mg/kg/injection, schedule: Q04DX002 (ip), vehicle: saline with Tween-80) 1 of 3; (dose: 100.0 mg/kg/injection, schedule: Q04DX002 (ip), vehicle: saline with Tween-80) 0 of 3; (dose: 200.0 mg/kg/injection, schedule: Q04DX002 (ip), vehicle: saline with Tween-80) 0 of 3; (dose: 400.0 mg/kg/injection, schedule: Q04DX002 (ip), vehicle: saline with Tween-80) 0 of 3.

For the molecule `Cc1c2cnccc2c(C)c2c1c1ccccc1n2CCOC(=O)c1ccccc1`, the survivor count (dose: 200.0 mg/kg/injection, schedule: Q01DX009 (ip), vehicle: saline with Tween-80) is listed as 6 of 6.

For `CC(=O)c1ccc(Br)cc1OCC(=O)O`, the survivor count (dose: 400.0 mg/kg/injection, schedule: Q01DX009 (ip), vehicle: gum acacia) is 3 of 6.
